Test results taken from patent US20150210984A1, “METHOD FOR R[…] IN VITRO” (priority 2011, published 2015).
At least one structure is not confirmed: it was looked up by name or label, or the drawing left a doubt.

Key:
Genotype 1 HCV [1] = test: Patient-derived monocytes fused to hepatocytes, HCV RNA by qPCR; assay type: cell-based; conditions: fused cells from patients with Genotype 1 HCV; 3 to 7 days with telaprevir; FIG. 8
G3 HCV = test: Capture-fusion assay, pre-treatment telaprevir sensitivity; assay type: cell-based; conditions: the three G3 patients who had a reduction in HCV RNA during treatment; FIG. 23
Genotype 1 HCV [2] = conditions: clinical trial data; cited from earlier work
genotype 3 HCV = conditions: cited from earlier work
[3] = tested on: HCV with dual V36M/R155K NS3 mutations; test: Capture-fusion assay, pre-treatment and post-failure patient samples; assay type: cell-based; conditions: after acquisition of NS3 V36M/R155K resistance mutations vs pre-treatment wild-type NS3; 2 patients; FIG. 21

Which results are given for `CCC[C@H](NC(=O)[C@@H]1[C@H]2CCC[C@H]2CN1C(=O)[C@@H](NC(=O)[C@@H](NC(=O)c1cnccn1)C1CCCCC1)C(C)(C)C)C(=O)C(=O)NC1CC1` [telaprevir]?
replication of HCV (HCV RNA) (Genotype 1 HCV [1]): inhibited; telaprevir IC50 in the capture-fusion assay (G3 HCV): low; clinical sensitivity to telaprevir (Genotype 1 HCV [2]): sensitive; clinical response to telaprevir (genotype 3 HCV; 8 patients with genotype 3 HCV treated, Foster et al (2011)): Three patients responded; clinical sensitivity to telaprevir (genotype 3 HCV; clinical trial data, genotype 3): is not; activity in patients (genotype 3 HCV; genotype 3 HCV patients): minimal activity; telaprevir sensitivity [3]: Reduced
